Test results published in patent US11236094B2, “Substituted pyrrolo[2,1-f][1,2,4]triazines as FGFR inhibitors” (CSPC ZHONGQI PHARMACEUTICAL TECHNOLOGY (SHIJIAZHUANG) CO., …, priority 2017, dated 2022).

Amino acid sequences for entries named in this document (tags omitted). Residues count along the entry.
UniProt P11362, 22-822: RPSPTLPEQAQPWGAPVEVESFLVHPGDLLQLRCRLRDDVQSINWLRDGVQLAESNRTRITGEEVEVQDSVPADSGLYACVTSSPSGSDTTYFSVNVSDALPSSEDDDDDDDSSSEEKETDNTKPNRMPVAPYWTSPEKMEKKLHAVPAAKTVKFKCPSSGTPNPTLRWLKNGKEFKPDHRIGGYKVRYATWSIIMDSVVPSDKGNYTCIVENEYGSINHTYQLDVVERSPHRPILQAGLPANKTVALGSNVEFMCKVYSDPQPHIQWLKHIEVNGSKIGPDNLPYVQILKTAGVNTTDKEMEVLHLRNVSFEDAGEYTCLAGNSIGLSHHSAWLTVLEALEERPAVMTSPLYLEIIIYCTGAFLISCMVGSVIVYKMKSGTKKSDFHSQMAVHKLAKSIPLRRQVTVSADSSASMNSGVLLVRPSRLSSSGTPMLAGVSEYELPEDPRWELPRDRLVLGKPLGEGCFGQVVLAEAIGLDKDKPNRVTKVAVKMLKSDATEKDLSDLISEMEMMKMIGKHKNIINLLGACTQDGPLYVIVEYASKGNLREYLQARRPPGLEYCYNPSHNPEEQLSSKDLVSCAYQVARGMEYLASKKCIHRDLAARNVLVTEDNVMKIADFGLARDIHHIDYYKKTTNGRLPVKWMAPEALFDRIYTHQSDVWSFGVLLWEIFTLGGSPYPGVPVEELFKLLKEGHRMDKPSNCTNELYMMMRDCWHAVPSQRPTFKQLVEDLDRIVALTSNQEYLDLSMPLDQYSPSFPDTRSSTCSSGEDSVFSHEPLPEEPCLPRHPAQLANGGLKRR
UniProt P22455, 22-802: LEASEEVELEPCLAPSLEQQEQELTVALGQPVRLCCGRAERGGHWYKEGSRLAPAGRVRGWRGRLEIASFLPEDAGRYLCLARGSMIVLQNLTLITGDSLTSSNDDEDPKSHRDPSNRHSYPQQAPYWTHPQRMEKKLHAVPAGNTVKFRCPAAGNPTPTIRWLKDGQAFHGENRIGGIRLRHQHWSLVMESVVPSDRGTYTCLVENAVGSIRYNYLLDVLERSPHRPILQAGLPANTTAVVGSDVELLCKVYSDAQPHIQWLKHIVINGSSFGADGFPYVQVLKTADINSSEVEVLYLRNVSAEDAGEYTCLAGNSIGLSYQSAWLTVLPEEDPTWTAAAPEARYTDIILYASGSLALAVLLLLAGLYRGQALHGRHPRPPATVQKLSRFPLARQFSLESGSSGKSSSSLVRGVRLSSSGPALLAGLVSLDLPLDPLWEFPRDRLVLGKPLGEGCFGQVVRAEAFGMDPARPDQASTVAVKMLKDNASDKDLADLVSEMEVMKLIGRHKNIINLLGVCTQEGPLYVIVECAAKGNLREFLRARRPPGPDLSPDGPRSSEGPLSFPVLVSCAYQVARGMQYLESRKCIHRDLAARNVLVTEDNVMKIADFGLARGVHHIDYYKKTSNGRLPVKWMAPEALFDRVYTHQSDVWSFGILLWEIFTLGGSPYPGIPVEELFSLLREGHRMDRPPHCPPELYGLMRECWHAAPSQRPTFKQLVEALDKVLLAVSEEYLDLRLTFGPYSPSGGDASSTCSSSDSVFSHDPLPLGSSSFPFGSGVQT

Key:
[1] = biological target: human FGFR1 (Homo sapiens, UniProt P11362); assay: 33P isotope-labeled kinase activity test, wild-type FGFR1
[2] = biological target: human FGFR4 (Homo sapiens, UniProt P22455); assay: 33P isotope-labeled kinase activity test, wild-type FGFR4; settings: 33P-ATP 100 μM, 120 minutes

SMILES: CCC(=O)N1CC[C@H](n2nc(C#Cc3cc(OC)cc(OC)c3)c3c(N)ncnc32)C1 [Reference Example 2, reference compound]
- IC50 [1]: 0.57 µM
- IC50 [2]: 8.75 µM
